# Reference: PMC7862700
# Chains of the proteins cited; added tags and fusions are not shown. Lines headed by an entry give the natural chain unless they say otherwise; changes in a name come on top.
# UniProt P32519: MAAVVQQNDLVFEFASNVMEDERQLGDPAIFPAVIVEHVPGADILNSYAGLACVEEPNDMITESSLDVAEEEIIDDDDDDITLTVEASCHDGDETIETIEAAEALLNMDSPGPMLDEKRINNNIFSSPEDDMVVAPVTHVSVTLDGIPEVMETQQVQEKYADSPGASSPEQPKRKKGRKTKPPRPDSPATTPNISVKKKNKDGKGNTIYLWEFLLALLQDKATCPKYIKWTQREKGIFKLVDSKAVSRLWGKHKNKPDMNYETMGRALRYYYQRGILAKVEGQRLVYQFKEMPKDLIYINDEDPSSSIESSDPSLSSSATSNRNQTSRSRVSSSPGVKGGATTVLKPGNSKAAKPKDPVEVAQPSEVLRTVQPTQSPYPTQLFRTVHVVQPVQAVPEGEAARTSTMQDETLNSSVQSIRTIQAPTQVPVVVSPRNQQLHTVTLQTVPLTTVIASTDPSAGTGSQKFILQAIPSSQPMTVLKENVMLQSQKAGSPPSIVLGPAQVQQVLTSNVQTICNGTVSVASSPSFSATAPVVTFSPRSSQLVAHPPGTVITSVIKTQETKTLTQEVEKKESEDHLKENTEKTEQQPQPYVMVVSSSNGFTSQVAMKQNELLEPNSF
# Only a part is listed here, and it is no random draw. For some of these results: At the low end of the ranking, values are background and their order means little. Some of the results follow. For some of these results: The exact form of the protein is not confirmed.
# Legend:
# ELF1 = ELF1 (UniProt P32519); test: DAPPL (digital affinity profiling via proximity ligation, sequencing); conditions: 10 mM Tris-HCl pH 7.5, 50 mM NaCl, 1 mM DTT, 4% glycerol, room temperature, 30 min; GST-TFs on glutathione beads, 16-mer random dsDNA library, 0.1% …; high values mean tight binding; double strand, one strand shown; scale: fold enrichment (6-mer frequency, TF over GST control)
# ETV4 = biological target: T1, ETV4 (UniProt P43268); test: as above; conditions: 10 mM Tris-HCl pH 7.5, 50 mM NaCl, 1 mM DTT, 4% glycerol, room temperature, 30 min; GST-TFs on glutathione beads, 16-mer random dsDNA library, 0.1% …; high values mean tight binding; double strand, one strand shown; scale: fold enrichment (6-mer frequency, TF over GST control)
# T1 sequence: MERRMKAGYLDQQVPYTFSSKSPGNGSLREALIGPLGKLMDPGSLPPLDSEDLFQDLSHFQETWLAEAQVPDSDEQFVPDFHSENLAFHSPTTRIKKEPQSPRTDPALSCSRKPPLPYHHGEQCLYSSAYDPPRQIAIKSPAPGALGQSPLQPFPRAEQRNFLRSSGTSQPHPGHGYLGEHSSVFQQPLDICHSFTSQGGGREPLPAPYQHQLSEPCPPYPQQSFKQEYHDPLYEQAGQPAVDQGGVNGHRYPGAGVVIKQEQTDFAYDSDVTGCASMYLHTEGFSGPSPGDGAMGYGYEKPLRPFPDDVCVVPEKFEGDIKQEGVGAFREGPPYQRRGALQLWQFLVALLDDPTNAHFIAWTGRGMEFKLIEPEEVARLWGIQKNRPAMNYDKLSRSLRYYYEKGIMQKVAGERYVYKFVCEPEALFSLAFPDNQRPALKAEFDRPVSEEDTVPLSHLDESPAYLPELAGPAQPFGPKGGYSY
Sequence,binding signal (ELF1),binding signal (ETV4)
CTAGGT,1.2,1.06
TCCTTT,1.81,1.66
ATACTG,1.09,1.08
TGCACT,1.42,1.57
ATTTGG,1.36,1.37
AGCCCT,1.07,1.15
ATGGTA,1.36,1.29
ATCTAC,1.34,1.32
TGGCTA,1.22,1.22
ACCGTC,1.19,1.2
TAGCGG,0.966,1.02
CCTGTT,1.75,1.68
AAGGTA,1.13,1.1
AATTAG,1.12,1.11
TAATGA,1.1,1.12
TTACAA,1.15,1.13
CACTGG,1.17,1.06
GTTCCG,1.78,1.87
CGCCTC,1.49,1.45
TCTTAC,1.32,1.2
CTGCAA,1.36,1.39
AGCCCC,1.05,1.11
TCCGGC,2,2.44
AAGTTT,1.37,1.4
ATGGTT,1.39,1.42
ATCTAG,1.1,1.08

# A run of entries taken from the entries so far, for reference:
Sequence,binding signal (ELF1),binding signal (ETV4)
CACTGG,1.17,1.06
GTTCCG,1.78,1.87
